± gives the standard deviation of the averaged measurements. The list shows a part of the results.
Compound: Nc1nc2c(ncn2[C@@H]2O[C@H](COP(=O)(O)OP(=O)(O)OP(=O)(O)O)[C@@H](O)[C@H]2O)c(=O)[nH]1 [guanosine triphosphate]
Test: NP40-soluble protein abundance relative to vehicle (solubility fold change) (ratio); higher = more soluble protein in presence of GTP
Procedure, shortened: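 Values are fold changes against the detergent-processed vehicle, based on vsn-normalised intensities. Jurkat crude lysate was treated at eight concentrations from 0.1 to 10 mM (10 min at room temperature, then 3 min at 37 °C), solubilised with 0.8% NP40 and benzonase, ultracentrifuged and analysed by TMT-labelled LC-MS/MS over three independent experiments.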

The chains behind the UniProt entries cited, without tags or fusion partners. Where a name states a change or a piece, a line headed by the entry shows the natural chain unless it says otherwise.
UniProt O60880: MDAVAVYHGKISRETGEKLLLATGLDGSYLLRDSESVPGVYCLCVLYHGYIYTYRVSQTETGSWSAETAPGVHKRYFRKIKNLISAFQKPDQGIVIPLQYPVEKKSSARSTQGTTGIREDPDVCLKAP
UniProt P0DPD6: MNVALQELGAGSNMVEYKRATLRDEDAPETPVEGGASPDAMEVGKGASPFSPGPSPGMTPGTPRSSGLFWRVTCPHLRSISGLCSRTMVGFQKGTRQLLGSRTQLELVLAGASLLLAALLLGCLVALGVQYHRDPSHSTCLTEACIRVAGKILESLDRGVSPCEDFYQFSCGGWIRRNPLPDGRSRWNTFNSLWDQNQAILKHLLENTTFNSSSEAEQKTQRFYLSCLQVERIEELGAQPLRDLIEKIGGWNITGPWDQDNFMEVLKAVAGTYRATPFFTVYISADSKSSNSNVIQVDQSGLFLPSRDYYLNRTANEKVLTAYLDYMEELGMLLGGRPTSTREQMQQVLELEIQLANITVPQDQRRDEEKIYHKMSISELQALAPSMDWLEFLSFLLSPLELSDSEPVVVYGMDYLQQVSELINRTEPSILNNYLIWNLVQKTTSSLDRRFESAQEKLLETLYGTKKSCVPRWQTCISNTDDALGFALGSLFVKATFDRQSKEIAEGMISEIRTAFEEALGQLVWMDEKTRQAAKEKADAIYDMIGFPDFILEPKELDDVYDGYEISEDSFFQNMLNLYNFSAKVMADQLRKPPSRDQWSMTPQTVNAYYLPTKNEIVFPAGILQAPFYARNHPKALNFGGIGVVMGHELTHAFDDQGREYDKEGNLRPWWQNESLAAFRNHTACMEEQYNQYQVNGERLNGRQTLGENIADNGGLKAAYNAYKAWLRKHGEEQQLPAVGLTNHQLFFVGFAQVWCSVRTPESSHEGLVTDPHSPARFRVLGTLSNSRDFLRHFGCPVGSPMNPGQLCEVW
UniProt O14745: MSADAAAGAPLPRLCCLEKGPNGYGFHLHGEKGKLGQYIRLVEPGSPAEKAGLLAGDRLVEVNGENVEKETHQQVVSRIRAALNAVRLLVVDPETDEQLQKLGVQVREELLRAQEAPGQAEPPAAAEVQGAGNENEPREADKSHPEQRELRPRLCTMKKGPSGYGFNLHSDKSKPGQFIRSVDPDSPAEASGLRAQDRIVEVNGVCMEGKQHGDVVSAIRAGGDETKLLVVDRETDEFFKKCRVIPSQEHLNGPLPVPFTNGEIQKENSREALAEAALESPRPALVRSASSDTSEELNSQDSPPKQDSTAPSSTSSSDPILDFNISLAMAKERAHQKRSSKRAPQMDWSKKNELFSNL
UniProt O60306: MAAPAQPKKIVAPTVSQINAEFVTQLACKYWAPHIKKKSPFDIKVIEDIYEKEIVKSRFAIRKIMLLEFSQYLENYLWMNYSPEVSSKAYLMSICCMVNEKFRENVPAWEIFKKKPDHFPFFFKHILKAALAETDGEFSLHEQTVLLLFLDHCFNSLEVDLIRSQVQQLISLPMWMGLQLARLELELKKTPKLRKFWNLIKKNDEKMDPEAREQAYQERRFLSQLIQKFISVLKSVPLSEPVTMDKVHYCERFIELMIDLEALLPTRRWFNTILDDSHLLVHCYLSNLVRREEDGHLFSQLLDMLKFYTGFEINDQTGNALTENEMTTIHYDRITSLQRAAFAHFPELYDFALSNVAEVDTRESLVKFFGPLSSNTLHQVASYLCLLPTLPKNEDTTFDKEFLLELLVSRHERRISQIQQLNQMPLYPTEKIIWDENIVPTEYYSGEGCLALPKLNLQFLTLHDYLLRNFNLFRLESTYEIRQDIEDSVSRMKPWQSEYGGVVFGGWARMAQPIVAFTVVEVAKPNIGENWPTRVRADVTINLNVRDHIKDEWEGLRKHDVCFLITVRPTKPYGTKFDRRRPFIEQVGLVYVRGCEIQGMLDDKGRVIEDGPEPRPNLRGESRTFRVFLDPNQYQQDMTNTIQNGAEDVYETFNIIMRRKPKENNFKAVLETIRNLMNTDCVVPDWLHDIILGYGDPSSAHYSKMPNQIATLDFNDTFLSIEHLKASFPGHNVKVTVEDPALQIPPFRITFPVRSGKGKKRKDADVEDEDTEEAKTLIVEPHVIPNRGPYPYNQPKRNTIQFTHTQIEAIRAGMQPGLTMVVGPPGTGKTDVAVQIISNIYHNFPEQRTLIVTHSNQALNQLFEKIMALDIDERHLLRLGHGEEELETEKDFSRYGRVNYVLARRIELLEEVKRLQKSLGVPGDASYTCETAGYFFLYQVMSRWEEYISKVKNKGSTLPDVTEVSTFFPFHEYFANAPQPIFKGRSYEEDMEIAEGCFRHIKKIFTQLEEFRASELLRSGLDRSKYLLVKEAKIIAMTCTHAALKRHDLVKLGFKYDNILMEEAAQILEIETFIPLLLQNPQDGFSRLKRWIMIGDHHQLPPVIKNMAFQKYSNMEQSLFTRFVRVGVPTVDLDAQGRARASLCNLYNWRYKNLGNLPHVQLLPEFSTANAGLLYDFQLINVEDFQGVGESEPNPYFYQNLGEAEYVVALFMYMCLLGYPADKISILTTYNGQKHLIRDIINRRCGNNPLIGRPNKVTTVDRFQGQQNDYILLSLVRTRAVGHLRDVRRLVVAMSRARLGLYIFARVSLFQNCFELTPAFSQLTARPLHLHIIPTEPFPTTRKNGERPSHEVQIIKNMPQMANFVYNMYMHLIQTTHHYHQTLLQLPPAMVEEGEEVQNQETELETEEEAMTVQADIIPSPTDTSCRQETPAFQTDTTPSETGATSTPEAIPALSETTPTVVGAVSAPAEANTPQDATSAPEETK
UniProt O60476: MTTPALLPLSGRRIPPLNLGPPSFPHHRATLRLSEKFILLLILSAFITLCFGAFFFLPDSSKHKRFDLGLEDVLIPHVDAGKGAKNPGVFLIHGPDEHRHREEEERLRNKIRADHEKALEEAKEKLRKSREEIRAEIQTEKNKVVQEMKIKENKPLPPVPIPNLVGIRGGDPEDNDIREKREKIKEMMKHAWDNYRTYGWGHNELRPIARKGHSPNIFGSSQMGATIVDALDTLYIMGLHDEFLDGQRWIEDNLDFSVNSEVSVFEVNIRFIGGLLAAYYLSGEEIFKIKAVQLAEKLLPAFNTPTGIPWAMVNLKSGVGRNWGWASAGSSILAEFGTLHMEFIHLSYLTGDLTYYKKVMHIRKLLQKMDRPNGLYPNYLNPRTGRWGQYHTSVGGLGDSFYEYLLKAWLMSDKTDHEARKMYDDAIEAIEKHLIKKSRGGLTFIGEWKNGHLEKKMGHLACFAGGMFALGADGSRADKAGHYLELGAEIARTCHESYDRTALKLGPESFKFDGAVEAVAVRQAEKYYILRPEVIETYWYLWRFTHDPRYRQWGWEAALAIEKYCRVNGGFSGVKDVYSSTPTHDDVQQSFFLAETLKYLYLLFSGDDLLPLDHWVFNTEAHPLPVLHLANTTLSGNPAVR
UniProt O43660: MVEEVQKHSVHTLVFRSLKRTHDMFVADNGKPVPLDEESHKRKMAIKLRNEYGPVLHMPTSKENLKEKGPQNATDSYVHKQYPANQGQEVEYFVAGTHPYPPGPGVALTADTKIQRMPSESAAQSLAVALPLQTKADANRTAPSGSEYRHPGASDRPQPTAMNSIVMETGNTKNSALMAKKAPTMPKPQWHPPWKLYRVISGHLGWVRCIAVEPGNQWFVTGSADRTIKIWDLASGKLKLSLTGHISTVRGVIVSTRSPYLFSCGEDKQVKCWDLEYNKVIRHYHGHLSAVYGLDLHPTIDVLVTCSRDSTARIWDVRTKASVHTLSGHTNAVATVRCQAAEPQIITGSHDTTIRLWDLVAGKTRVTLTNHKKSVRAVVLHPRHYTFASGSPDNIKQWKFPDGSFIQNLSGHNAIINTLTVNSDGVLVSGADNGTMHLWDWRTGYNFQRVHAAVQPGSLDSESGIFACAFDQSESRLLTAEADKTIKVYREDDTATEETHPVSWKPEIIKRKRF
UniProt O43678, whole entry: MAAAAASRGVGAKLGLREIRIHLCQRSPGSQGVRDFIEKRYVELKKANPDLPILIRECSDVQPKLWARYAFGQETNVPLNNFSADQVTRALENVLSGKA
UniProt O00203: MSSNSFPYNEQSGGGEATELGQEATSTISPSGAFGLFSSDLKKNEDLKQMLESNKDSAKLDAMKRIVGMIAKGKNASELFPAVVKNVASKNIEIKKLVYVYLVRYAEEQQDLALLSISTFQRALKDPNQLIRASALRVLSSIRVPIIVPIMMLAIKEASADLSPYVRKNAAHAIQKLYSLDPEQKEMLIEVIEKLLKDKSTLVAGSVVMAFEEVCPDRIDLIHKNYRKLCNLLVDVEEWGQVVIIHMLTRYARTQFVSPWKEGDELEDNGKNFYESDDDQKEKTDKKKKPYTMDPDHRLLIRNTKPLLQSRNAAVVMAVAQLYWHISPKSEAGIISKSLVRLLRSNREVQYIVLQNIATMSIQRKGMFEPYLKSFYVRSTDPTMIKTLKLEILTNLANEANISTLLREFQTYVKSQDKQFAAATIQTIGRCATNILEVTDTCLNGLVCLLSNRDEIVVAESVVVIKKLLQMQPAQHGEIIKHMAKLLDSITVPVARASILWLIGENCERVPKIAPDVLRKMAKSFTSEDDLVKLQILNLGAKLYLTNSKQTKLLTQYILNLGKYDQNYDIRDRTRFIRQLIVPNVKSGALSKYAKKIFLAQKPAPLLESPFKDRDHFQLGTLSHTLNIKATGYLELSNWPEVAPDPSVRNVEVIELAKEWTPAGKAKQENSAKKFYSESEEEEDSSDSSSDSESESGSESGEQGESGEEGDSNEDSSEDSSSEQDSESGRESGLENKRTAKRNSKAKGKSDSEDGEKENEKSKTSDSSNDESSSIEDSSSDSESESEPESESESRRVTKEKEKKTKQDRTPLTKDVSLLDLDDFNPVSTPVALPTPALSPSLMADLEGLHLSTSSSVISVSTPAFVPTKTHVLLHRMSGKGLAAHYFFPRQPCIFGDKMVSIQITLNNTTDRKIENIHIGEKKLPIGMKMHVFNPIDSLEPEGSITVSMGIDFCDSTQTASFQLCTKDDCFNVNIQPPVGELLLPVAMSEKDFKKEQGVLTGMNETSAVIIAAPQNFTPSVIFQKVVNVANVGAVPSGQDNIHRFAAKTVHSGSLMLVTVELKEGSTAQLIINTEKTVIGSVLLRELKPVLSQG
UniProt O43303: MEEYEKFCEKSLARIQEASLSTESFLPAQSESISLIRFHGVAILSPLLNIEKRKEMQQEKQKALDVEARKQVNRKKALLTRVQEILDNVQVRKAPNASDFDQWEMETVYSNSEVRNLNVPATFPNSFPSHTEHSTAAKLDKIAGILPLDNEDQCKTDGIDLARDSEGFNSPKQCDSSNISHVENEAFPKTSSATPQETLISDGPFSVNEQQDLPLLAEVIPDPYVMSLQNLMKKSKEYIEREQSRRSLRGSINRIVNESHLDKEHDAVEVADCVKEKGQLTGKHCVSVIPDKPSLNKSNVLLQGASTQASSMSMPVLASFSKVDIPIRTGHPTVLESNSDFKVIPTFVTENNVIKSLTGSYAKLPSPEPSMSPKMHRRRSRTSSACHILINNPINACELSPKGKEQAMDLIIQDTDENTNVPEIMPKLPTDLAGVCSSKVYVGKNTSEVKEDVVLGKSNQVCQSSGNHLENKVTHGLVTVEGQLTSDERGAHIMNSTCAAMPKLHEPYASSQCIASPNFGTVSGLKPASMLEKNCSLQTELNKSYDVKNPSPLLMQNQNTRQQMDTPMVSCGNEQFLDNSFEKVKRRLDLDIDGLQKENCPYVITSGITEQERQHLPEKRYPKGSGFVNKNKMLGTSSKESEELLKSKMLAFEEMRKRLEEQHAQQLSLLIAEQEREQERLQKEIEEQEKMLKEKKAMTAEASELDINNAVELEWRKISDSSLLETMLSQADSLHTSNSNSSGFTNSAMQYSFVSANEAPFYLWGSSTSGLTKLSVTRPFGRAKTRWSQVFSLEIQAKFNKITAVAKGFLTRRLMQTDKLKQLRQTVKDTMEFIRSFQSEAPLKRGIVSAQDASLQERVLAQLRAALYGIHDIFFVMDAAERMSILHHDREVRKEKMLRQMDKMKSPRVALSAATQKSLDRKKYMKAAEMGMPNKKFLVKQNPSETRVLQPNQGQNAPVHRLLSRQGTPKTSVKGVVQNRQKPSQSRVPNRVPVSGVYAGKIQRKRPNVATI
UniProt O15379: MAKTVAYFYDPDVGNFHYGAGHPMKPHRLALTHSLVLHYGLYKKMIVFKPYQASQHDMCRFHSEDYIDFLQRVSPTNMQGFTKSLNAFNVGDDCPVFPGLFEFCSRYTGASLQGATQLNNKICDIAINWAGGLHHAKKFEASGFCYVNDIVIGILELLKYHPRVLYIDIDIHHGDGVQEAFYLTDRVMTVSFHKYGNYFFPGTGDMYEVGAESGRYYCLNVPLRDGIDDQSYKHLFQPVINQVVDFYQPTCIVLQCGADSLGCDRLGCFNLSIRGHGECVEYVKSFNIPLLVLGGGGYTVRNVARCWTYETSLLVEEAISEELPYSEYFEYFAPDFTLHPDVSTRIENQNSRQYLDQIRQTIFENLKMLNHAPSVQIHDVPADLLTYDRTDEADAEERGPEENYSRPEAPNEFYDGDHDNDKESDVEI

Target	NP40-soluble protein abundance (concentration: 0.1mM)	NP40-soluble protein abundance (concentration: 0.5mM)	NP40-soluble protein abundance (concentration: 1mM)	NP40-soluble protein abundance (concentration: 2mM)	NP40-soluble protein abundance (concentration: 4mM)	NP40-soluble protein abundance (concentration: 6mM)	NP40-soluble protein abundance (concentration: 8mM)	NP40-soluble protein abundance (concentration: 10mM)
M0R0S1 and related entries (UniProt Q8TBC3)	0.889 ± 0.19	1.02 ± 0.013	1.07 ± 0.15	1.07 ± 0.086	1.14 ± 0.11	1.19 ± 0.11	1.24 ± 0.029	1.16 ± 0.12
UniProt O14828 and related entries	0.943 ± 0.032	0.912 ± 0.11	0.918 ± 0.061	0.88 ± 0.091	0.887 ± 0.051	0.867 ± 0.099	0.887 ± 0.017	0.882 ± 0.094
HMGN4 (UniProt O00479)	1.08 ± 0.057	1.06 ± 0.12	1.02 ± 0.12	1.31 ± 0.04	1.83 ± 0.15	2.26 ± 0.16	1.51 ± 0.74	4.79 ± 0.19
ZZEF1 (UniProt O43149)	1.07 ± 0.088	1.09 ± 0.13	1.12 ± 0.13	1.13 ± 0.086	1.13 ± 0.14	1.14 ± 0.15	1.15 ± 0.15	1.11 ± 0.15
UniProt O60880 and related entries	0.979 ± 0.065	0.949 ± 0.076	1.01 ± 0.1	0.939 ± 0.11	0.955 ± 0.14	0.945 ± 0.14	0.976 ± 0.1	0.927 ± 0.12
O60344 and related entries (UniProt P0DPD6)	1.02 ± 0.12	0.996 ± 0.13	0.916 ± 0.08	0.988 ± 0.14	0.959 ± 0.1	0.884 ± 0.12	0.883 ± 0.091	0.871 ± 0.14
GNPAT (UniProt O15228)	1.06 ± 0.078	1.05 ± 0.081	0.948 ± 0.03	0.942 ± 0.098	0.913 ± 0.092	0.904 ± 0.061	0.889 ± 0.045	0.819 ± 0.096
ARPC1B (UniProt O15143)	1 ± 0.045	1.04 ± 0.056	0.933 ± 0.034	0.942 ± 0.062	0.928 ± 0.056	0.948 ± 0.04	0.923 ± 0.017	0.887 ± 0.012
SLC9A3R1 (UniProt O14745)	0.886 ± 0.081	0.901 ± 0.099	0.927 ± 0.096	0.877 ± 0.11	0.868 ± 0.11	0.888 ± 0.12	0.885 ± 0.088	0.889 ± 0.11
UniProt O15258 and related entries	0.957 ± 0.074	0.993 ± 0.041	0.895 ± 0.091	0.933 ± 0.038	0.925 ± 0.073	0.86 ± 0.067	0.862 ± 0.1	0.894 ± 0.03
UniProt O43439 and related entries	1.13 ± 0.016	1.03 ± 0.047	1.09 ± 0.055	1.02 ± 0.055	1.11 ± 0.079	1.08 ± 0.068	1.12 ± 0.097	1.12 ± 0.043
UniProt O43251-6|O43251-8	0.922 ± 0.12	0.965 ± 0.11	0.925 ± 0.079	0.971 ± 0.1	0.928 ± 0.077	0.961 ± 0.047	0.952 ± 0.04	0.958 ± 0.088
M0R0F0 and related entries (UniProt P46782)	0.939 ± 0.058	0.97 ± 0.06	1.05 ± 0.14	1.01 ± 0.14	0.921 ± 0.2	0.895 ± 0.17	0.797 ± 0.13	0.883 ± 0.21
UniProt O60888 and related entries	0.888 ± 0.056	0.819 ± 0.043	0.949 ± 0.027	0.958 ± 0.079	0.945 ± 0.057	0.9 ± 0.031	0.855 ± 0.1	0.941 ± 0.029
PRPSAP2 (UniProt O60256)	1.06 ± 0.11	1.15 ± 0.19	1.16 ± 0.23	1.33 ± 0.36	1.33 ± 0.34	1.32 ± 0.37	1.24 ± 0.28	1.26 ± 0.3
PSMD3 (UniProt O43242)	1.06 ± 0.076	1.09 ± 0.14	1.02 ± 0.11	1.11 ± 0.2	1.09 ± 0.18	1.09 ± 0.18	1.07 ± 0.15	1.03 ± 0.16
AQR (UniProt O60306)	1.08 ± 0.033	1.09 ± 0.085	1.04 ± 0.052	1.03 ± 0.12	1.04 ± 0.12	1.02 ± 0.15	0.995 ± 0.077	0.957 ± 0.082
MAN1A2 (UniProt O60476)	1.06 ± 0.098	1.08 ± 0.04	0.955 ± 0.015	1.01 ± 0.094	0.952 ± 0.045	0.969 ± 0.041	0.92 ± 0.022	0.947 ± 0.031
NCK2 (UniProt O43639)	1.04 ± 0.046	0.984 ± 0.027	0.972 ± 0.021	0.937 ± 0.038	0.927 ± 0.054	0.915 ± 0.074	0.929 ± 0.061	0.882 ± 0.085
URB1 (UniProt O60287)	1.07 ± 0.019	1.16 ± 0.061	1.21 ± 0.076	1.41 ± 0.097	1.79 ± 0.072	1.95 ± 0.13	2.18 ± 0.082	2.34 ± 0.033
STX6 (UniProt O43752)	0.923 ± 0.05	0.878 ± 0.082	0.967 ± 0.084	0.932 ± 0.062	0.921 ± 0.066	0.908 ± 0.065	0.896 ± 0.021	0.907 ± 0.084
PLRG1 (UniProt O43660)	1.03 ± 0.047	1.07 ± 0.07	1.02 ± 0.06	1.08 ± 0.074	1.13 ± 0.12	1.17 ± 0.097	1.23 ± 0.12	1.23 ± 0.11
UniProt O14578-4	0.977 ± 0.037	1.002 ± 0.01	1.01 ± 0.011	0.973 ± 0.024	0.975 ± 0.031	0.9786 ± 0.006	0.993 ± 0.052	0.991 ± 0.059
HTATSF1 (UniProt O43719)	0.933 ± 0.054	0.957 ± 0.075	0.948 ± 0.08	0.912 ± 0.091	0.885 ± 0.087	0.912 ± 0.1	0.903 ± 0.078	0.882 ± 0.12
LSM1 (UniProt O15116)	0.952 ± 0.033	0.908 ± 0.075	1.01 ± 0.017	1.05 ± 0.044	1.03 ± 0.055	1.01 ± 0.09	0.946 ± 0.096	1.09 ± 0.063
UniProt O00442 and related entries	1.06 ± 0.046	1.01 ± 0.032	0.97 ± 0.06	0.961 ± 0.049	0.971 ± 0.1	0.924 ± 0.021	0.937 ± 0.1	0.924 ± 0.066
NDUFA2 (UniProt O43678)	0.985 ± 0.13	1.02 ± 0.035	1.26 ± 0.14	1.18 ± 0.072	1.24 ± 0.093	1.266 ± 0.0086	1.25 ± 0.05	1.48 ± 0.057
AP3B1 (UniProt O00203)	1.004 ± 0.0019	1.05 ± 0.028	0.98 ± 0.033	1.02 ± 0.044	0.991 ± 0.043	0.998 ± 0.056	0.994 ± 0.044	0.991 ± 0.015
UniProt O43303 and related entries	1.03 ± 0.11	0.98 ± 0.11	1.09 ± 0.092	1.06 ± 0.19	1.1 ± 0.29	1.09 ± 0.21	1.09 ± 0.22	1.06 ± 0.18
UniProt O15379 and related entries	1.11 ± 0.11	1.09 ± 0.19	1.12 ± 0.12	1.07 ± 0.17	1.16 ± 0.16	1.11 ± 0.19	1.14 ± 0.19	1.07 ± 0.21

Reformatted field by field: part of the list above.
URB1 (UniProt O60287)
  NP40-soluble protein abundance (concentration: 0.1mM): 1.07 ± 0.019
  NP40-soluble protein abundance (concentration: 0.5mM): 1.16 ± 0.061
  NP40-soluble protein abundance (concentration: 1mM): 1.21 ± 0.076
  NP40-soluble protein abundance (concentration: 2mM): 1.41 ± 0.097
  NP40-soluble protein abundance (concentration: 4mM): 1.79 ± 0.072
  NP40-soluble protein abundance (concentration: 6mM): 1.95 ± 0.13
  NP40-soluble protein abundance (concentration: 8mM): 2.18 ± 0.082
  NP40-soluble protein abundance (concentration: 10mM): 2.34 ± 0.033
STX6 (UniProt O43752)
  NP40-soluble protein abundance (concentration: 0.1mM): 0.923 ± 0.05
  NP40-soluble protein abundance (concentration: 0.5mM): 0.878 ± 0.082
  NP40-soluble protein abundance (concentration: 1mM): 0.967 ± 0.084
  NP40-soluble protein abundance (concentration: 2mM): 0.932 ± 0.062
  NP40-soluble protein abundance (concentration: 4mM): 0.921 ± 0.066
  NP40-soluble protein abundance (concentration: 6mM): 0.908 ± 0.065
  NP40-soluble protein abundance (concentration: 8mM): 0.896 ± 0.021
  NP40-soluble protein abundance (concentration: 10mM): 0.907 ± 0.084
